Laboratory results taken from PMC9742362.
These are yes or no findings as the source states them, for the method shown. In cells and extracts the contact can be indirect. These calls come from enrichment with a bait or labelling near it, and not all partners need be listed. For part of these data: Sequences can lack the tags named with a protein.

Amino acid sequences for entries named in this document (tags omitted).
UniProt Q9UJ04: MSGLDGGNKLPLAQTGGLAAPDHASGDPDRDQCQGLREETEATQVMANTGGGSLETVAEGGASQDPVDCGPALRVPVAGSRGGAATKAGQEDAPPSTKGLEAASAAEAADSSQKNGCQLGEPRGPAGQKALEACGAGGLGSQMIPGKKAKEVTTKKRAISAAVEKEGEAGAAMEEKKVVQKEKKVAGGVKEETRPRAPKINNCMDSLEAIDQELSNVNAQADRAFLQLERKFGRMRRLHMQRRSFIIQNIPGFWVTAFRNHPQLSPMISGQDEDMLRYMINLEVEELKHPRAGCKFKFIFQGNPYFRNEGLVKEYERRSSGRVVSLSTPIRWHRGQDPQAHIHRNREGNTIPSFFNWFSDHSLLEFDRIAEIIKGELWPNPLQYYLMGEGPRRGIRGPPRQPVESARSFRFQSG
UniProt P36402: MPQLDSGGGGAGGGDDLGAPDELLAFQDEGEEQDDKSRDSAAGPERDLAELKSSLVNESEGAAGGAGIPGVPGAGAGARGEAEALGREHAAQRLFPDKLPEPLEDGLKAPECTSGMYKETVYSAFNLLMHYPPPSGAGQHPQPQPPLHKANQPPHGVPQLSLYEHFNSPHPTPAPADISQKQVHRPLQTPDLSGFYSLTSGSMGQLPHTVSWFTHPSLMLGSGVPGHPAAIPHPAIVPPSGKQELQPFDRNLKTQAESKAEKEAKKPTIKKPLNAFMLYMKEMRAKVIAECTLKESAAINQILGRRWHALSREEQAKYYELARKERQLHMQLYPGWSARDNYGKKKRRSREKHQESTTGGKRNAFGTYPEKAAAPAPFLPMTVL
UniProt Q9NQB0: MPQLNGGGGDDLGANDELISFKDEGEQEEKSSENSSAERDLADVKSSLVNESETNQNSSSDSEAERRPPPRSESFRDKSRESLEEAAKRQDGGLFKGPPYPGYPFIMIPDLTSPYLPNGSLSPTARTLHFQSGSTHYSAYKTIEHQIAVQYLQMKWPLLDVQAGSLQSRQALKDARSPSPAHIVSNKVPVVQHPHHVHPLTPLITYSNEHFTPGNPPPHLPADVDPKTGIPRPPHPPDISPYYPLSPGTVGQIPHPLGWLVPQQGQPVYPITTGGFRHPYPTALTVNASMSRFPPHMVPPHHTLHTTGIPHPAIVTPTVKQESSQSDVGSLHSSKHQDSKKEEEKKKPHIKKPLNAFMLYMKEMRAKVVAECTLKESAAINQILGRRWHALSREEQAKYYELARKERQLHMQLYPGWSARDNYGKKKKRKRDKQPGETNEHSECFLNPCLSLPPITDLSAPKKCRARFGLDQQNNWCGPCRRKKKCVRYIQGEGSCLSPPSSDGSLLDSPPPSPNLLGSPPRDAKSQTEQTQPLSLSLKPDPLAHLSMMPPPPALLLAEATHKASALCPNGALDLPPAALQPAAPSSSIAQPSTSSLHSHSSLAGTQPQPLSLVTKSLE

Experiments:
Assay in all cases: affinity purification with mass spectrometry; differentiated HepaRG cells transiently transfected with IRES-TSPYL1, 2 or 4 plasmids for 48 h; immunoprecipitation with Flag antibody, normal mouse IgG as negative control; eluted in 2X Laemmli buffer, SDS-PAGE, gel slices analysed by mass spectrometry
[1] = molecular target: 3XFLAG-TSPYL1 (testis-specific Y-encoded-like protein 1) (human) (UniProt Q9H0U9)
[2] = molecular target: T1, 3XFLAG-TSPYL2 (testis-specific Y-encoded-like protein 2) (human) (UniProt Q9H2G4)
T1 sequence: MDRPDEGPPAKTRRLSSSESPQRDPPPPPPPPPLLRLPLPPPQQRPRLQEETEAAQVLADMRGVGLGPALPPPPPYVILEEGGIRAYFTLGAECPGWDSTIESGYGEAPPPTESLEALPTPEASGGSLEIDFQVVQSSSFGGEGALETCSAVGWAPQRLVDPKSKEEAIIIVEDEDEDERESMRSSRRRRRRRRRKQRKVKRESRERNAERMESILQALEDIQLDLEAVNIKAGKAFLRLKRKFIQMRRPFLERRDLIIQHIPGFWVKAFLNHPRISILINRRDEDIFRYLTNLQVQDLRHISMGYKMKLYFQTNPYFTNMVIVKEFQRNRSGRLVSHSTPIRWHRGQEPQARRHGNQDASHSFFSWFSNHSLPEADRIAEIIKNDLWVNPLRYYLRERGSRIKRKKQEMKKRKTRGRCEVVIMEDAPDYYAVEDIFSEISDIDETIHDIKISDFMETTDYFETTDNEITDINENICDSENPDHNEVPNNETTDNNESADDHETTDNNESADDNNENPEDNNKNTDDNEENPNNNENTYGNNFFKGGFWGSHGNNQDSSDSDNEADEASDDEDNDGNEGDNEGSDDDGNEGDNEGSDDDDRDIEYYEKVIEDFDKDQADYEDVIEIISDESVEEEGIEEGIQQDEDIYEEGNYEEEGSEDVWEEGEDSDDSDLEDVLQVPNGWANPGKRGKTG

[3] = molecular target: 3XFLAG-TSPYL4 (testis-specific Y-encoded-like protein 4) (human) (UniProt Q9UJ04)

| binding [1] | binding [2] | binding [3] | Substance |
| --- | --- | --- | --- |
| binds | binds | binds | TCF7 (from UniProt P36402 1-384) |
| binds | binds | binds | TCF7L2 (endogenous) (from UniProt Q9NQB0 1-619) |
